Data as given in PubChem BioAssay AID1259308 (NCATS, 2017).

- Test: 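Genes whose loss raises luciferase production in HEK293 cells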 (primary screen)
- System: human HEK293 embryonic kidney cells stably expressing firefly luciferase (HEK-CMV-Luc2-Hygro)
- Knock-down reagent: single siRNA against human genes, 0.8 pmol siRNA per well
- Timing: 72 h
- Measured: 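Reporter luminescence and viable-cell signal on separate replicate plates, given as percent of non-targeting control and median/MAD z-scores, plus per-cell luciferase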
- Reading the numbers: total luciferase, z-score: higher = more reporter protein produced
- Rule for the call: 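Active when the median/MAD z-score for overall luciferase is greater than 3; a gene was taken forward for validation with new siRNAs if at least two of its three siRNAs passed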
- Meaning of the calls: active = raised luciferase; inactive = no rise
This is an unselected part of about 59,000 reagents tested. About 1,510 of them (2.6%) count as active. 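Calls use total luciferase alone and ignore viability, so some active siRNAs may act by altering cell number.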 Reagents against one gene are numbered here. Further read-outs or replicates are left out here.

INTS6L #1 → total luciferase, z-score = 1.45; Call = inactive
INTS6L #2 → total luciferase, z-score = -0.0645; Call = inactive
INTS6L #3 → total luciferase, z-score = 0.0459; Call = inactive
CLEC4D #1 → total luciferase, z-score = 0.502; Call = inactive
CLEC4D #2 → total luciferase, z-score = -1.14; Call = inactive
CLEC4D #3 → total luciferase, z-score = -0.0495; Call = inactive
NLRP5 #1 → total luciferase, z-score = -0.0602; Call = inactive
NLRP5 #2 → total luciferase, z-score = 0.54; Call = inactive
NLRP5 #3 → total luciferase, z-score = 0.156; Call = inactive
TSPY1 #1 → total luciferase, z-score = -0.23; Call = inactive
TSPY1 #2 → total luciferase, z-score = 2.24; Call = inactive
TSPY1 #3 → total luciferase, z-score = 0.248; Call = inactive
RABEP2 #1 → total luciferase, z-score = 0.158; Call = inactive
RABEP2 #2 → total luciferase, z-score = 0.613; Call = inactive
RABEP2 #3 → total luciferase, z-score = -0.834; Call = inactive
OGT #1 → total luciferase, z-score = -0.308; Call = inactive
OGT #2 → total luciferase, z-score = -1.08; Call = inactive
OGT #3 → total luciferase, z-score = 0.265; Call = inactive
EPHA6 #1 → total luciferase, z-score = -0.176; Call = inactive
EPHA6 #2 → total luciferase, z-score = -0.432; Call = inactive
EPHA6 #3 → total luciferase, z-score = -0.516; Call = inactive

3 entries from above, sorted by “total luciferase, z-score”, descending:
OGT #1 → total luciferase, z-score = -0.308; Call = inactive
RABEP2 #3 → total luciferase, z-score = -0.834; Call = inactive
OGT #2 → total luciferase, z-score = -1.08; Call = inactive
